# ± gives the standard deviation of the averaged measurements. The list shows a part of the results, in another mix than the full data. Small differences around the control level are noise.
# Amino acid sequences for entries named in this document (tags omitted). A change or cut given only in a name is not applied to a line headed by its entry.
# UniProt Q9UKK3: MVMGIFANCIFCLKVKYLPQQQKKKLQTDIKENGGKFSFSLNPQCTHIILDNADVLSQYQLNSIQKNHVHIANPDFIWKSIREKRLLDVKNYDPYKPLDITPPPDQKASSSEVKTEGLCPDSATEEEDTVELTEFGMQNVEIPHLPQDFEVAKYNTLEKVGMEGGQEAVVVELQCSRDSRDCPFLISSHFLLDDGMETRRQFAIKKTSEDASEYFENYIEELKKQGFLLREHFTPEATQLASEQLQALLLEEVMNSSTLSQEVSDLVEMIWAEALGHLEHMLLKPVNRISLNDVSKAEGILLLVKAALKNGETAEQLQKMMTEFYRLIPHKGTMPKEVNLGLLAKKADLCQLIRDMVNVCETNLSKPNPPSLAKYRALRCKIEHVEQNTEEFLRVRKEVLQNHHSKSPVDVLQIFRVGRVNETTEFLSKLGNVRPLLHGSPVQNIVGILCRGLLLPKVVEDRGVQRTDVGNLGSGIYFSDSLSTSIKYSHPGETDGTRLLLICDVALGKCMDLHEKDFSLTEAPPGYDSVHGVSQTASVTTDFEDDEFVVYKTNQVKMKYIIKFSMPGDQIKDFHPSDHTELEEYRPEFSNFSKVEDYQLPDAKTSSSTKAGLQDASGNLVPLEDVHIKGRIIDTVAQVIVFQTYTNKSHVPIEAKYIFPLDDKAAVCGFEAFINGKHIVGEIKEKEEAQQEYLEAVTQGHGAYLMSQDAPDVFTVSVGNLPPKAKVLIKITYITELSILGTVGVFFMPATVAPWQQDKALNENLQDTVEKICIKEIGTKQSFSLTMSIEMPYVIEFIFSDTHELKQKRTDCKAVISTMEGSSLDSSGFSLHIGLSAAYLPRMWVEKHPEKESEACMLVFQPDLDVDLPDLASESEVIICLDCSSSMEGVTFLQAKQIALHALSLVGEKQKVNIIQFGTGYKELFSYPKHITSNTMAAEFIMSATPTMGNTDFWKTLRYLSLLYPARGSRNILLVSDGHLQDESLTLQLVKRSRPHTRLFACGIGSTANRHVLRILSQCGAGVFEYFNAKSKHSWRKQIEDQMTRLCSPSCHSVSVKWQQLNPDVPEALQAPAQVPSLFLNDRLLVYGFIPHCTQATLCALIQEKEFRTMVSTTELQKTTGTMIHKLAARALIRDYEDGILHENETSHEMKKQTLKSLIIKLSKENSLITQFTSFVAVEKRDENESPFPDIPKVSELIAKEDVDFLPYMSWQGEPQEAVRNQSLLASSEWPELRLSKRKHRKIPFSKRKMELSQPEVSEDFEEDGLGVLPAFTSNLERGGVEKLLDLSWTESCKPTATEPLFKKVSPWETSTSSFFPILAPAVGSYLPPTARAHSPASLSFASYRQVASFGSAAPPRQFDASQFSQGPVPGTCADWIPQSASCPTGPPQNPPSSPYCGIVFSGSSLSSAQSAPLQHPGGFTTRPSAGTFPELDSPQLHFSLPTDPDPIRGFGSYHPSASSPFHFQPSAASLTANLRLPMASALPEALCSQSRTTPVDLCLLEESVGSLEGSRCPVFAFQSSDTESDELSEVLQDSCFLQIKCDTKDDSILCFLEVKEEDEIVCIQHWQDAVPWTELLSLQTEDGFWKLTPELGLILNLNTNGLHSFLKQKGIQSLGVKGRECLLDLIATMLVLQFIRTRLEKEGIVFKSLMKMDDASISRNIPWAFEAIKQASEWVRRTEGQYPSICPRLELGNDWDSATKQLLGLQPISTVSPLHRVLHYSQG
# UniProt Q9Y237, whole entry: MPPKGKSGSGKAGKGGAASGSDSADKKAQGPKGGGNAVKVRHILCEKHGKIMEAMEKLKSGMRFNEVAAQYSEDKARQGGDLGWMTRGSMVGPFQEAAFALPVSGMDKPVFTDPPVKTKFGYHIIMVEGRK
# UniProt Q9ULT8: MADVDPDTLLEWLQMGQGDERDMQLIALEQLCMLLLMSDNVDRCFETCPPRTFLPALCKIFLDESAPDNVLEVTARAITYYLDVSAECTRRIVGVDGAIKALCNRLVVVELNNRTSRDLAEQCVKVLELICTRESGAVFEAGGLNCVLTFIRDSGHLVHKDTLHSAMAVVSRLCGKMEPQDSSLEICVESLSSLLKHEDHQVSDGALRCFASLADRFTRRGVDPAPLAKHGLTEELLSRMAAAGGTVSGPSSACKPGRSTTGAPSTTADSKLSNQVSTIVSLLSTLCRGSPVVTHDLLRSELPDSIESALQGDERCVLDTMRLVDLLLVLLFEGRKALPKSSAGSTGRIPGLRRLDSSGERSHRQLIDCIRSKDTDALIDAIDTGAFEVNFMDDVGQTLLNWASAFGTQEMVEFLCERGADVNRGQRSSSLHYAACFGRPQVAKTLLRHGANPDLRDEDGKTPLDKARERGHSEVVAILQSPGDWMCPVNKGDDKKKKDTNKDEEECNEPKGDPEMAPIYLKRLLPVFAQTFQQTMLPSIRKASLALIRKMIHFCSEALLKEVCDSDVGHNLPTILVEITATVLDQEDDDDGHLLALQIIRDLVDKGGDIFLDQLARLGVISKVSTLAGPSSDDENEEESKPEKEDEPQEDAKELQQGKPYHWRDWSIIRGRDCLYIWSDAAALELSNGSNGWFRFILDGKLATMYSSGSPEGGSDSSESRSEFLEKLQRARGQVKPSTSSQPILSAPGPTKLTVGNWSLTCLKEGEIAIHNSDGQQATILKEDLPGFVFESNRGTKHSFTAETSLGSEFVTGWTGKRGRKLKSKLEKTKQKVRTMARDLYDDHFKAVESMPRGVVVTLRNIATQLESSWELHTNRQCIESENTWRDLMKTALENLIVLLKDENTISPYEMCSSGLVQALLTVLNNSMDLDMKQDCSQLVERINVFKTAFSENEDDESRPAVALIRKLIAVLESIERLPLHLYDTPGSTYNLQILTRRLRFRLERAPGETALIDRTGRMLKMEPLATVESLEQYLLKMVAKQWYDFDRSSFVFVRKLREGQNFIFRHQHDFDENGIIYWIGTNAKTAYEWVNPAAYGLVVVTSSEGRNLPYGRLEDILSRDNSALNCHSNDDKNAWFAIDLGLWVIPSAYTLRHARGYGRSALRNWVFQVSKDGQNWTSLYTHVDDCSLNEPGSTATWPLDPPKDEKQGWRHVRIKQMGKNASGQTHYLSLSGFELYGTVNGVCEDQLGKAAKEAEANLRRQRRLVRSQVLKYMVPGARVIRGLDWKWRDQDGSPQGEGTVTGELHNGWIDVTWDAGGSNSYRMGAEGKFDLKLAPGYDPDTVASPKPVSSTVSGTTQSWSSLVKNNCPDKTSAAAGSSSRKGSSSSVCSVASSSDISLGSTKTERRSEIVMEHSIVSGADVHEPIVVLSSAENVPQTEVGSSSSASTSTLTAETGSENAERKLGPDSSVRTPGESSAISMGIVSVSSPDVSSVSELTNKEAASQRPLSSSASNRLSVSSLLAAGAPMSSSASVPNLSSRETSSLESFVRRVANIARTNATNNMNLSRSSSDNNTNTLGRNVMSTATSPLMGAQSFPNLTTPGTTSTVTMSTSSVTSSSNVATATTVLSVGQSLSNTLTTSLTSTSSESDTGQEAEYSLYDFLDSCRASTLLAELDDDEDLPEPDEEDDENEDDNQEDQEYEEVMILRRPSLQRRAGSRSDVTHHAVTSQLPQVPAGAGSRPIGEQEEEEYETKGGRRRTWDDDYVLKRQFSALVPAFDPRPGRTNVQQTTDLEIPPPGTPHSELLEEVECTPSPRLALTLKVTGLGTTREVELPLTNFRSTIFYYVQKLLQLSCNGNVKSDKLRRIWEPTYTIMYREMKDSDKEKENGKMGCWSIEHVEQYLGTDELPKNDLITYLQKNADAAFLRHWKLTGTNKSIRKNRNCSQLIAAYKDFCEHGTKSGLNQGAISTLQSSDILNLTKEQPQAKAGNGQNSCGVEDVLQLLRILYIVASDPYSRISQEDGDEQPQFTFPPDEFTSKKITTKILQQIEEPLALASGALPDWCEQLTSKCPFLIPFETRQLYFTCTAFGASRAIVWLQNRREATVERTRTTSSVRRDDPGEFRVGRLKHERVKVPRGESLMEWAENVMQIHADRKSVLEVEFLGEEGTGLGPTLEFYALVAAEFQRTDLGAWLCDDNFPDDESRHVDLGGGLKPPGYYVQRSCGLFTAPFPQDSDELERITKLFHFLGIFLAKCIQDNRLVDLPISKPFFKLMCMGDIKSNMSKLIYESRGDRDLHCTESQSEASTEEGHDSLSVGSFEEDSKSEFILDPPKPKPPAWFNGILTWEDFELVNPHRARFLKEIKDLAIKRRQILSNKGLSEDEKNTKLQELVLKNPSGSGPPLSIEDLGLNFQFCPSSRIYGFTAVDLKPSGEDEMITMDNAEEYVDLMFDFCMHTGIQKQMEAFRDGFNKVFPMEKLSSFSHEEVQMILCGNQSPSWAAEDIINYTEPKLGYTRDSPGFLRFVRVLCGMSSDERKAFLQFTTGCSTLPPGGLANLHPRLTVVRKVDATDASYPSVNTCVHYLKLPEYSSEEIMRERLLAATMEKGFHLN
# UniProt Q9Y2G5: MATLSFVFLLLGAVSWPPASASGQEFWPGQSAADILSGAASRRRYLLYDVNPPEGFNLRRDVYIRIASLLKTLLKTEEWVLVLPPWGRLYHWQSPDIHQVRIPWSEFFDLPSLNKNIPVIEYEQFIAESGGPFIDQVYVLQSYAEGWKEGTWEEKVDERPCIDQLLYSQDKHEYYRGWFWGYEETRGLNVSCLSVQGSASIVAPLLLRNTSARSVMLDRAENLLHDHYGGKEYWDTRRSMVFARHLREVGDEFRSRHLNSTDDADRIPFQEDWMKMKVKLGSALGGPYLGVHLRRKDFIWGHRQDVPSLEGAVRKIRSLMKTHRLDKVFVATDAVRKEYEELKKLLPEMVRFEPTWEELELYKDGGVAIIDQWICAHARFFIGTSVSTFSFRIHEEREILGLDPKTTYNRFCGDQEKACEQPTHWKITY
# UniProt Q9UK61: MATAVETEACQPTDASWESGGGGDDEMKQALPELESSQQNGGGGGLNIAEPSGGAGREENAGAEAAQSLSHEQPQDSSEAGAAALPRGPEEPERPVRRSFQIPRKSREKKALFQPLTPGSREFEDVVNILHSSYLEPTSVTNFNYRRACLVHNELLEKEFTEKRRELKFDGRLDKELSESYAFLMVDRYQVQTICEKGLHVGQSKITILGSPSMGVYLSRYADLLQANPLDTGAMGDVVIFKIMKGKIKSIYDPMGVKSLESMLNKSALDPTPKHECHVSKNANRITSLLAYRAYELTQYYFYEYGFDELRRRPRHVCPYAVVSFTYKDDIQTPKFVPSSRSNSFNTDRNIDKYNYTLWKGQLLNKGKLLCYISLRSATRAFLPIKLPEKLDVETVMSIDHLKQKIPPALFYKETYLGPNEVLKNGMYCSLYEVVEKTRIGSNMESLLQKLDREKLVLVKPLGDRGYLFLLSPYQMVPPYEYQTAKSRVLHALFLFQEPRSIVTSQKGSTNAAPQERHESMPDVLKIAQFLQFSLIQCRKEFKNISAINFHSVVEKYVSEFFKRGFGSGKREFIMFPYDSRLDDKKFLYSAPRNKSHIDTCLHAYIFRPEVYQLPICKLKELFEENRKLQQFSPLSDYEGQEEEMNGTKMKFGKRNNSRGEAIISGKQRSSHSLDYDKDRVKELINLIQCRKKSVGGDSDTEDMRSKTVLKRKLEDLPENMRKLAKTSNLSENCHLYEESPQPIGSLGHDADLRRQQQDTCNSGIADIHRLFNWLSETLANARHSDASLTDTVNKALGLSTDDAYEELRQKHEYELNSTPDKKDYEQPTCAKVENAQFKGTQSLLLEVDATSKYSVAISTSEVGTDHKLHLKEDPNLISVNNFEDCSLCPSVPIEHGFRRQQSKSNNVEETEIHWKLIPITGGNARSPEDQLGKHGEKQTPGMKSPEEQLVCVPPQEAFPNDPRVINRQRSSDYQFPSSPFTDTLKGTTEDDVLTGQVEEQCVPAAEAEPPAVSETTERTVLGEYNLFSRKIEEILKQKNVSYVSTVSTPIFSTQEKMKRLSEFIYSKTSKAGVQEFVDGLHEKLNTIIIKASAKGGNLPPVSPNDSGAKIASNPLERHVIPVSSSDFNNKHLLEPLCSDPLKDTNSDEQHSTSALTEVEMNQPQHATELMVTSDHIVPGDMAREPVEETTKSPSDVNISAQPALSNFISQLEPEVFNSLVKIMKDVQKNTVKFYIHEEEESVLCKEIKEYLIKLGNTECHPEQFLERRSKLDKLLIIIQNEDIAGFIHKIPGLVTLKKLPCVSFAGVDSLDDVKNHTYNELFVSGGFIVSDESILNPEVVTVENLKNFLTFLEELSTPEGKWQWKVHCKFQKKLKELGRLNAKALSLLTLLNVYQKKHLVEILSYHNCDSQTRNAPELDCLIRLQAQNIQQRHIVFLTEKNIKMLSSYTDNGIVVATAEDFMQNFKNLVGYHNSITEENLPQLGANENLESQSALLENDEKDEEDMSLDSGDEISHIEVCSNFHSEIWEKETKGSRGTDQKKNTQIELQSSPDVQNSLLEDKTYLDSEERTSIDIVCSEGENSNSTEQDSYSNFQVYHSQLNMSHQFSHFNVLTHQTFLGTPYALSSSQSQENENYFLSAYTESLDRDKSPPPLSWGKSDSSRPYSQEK
# Compound: Nc1ncnc2c1ncn2[C@@H]1O[C@H](COP(=O)(O)OP(=O)(O)NP(=O)(O)O)[C@@H](O)[C@H]1O [adenylyl imidodiphosphate]
# Test: NP40-soluble protein abundance relative to vehicle (solubility fold change) (ratio); higher = more soluble protein in presence of AMP-PNP
# Method in brief: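 Across three independent experiments, values are fold changes against the detergent-processed vehicle for each replicate, based on vsn-normalised intensities. The samples were Jurkat crude lysate treated with eight concentrations (0.1 to 10 mM) for 10 min at room temperature and then 3 min at 37 °C. Lysate was solubilised with 0.8% NP40 and benzonase, ultracentrifuged, and the supernatant analysed by TMT-labelled LC-MS/MS.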
Target,NP40-soluble protein abundance (concentration: 0.1mM),NP40-soluble protein abundance (concentration: 0.5mM)
UniProt Q9UEW8 and related entries,1.06 ± 0.025,1.06 ± 0.074
MAN1B1 (UniProt Q9UKM7),1.019 ± 0.0086,1.035 ± 0.0025
UniProt Q9UI08-2|G3V5F7,1.034 ± 0.01,0.994 ± 0.042
RAB21 (UniProt Q9UL25),1.01 ± 0.026,1.01 ± 0.044
DIS3 (UniProt Q9Y2L1),1 ± 0.033,0.961 ± 0.068
UniProt Q9Y320 and related entries,0.958 ± 0.04,0.971 ± 0.037
UniProt Q9UP83 and related entries,1.02 ± 0.026,1.03 ± 0.014
UniProt Q9Y2I7,0.982 ± 0.023,0.993 ± 0.038
UniProt Q9ULV4 and related entries,1.02 ± 0.063,1.06 ± 0.056
ADD3 (UniProt Q9UEY8),1.003 ± 0.0086,0.999 ± 0.017
UniProt Q9UJS0 and related entries,1.01 ± 0.029,1.03 ± 0.056
GPATCH8 (UniProt Q9UKJ3),1.04 ± 0.038,1.04 ± 0.052
UniProt Q9Y2K1 and related entries,0.983 ± 0.056,0.982 ± 0.06
UniProt Q9Y2S0 and related entries,0.999 ± 0.067,1.02 ± 0.059
MSRB2 (UniProt Q9Y3D2),0.99 ± 0.034,0.982 ± 0.03
PRPF19 (UniProt Q9UMS4),1.04 ± 0.022,1.04 ± 0.033
MRTO4 (UniProt Q9UKD2),1.04 ± 0.043,1.07 ± 0.01
PARP4 (UniProt Q9UKK3),0.989 ± 0.0085,0.9913 ± 0.0061
UniProt Q9UK76,1 ± 0.022,1.03 ± 0.045
NUDC (UniProt Q9Y266),0.981 ± 0.024,1.02 ± 0.041
WBP11 (UniProt Q9Y2W2),0.989 ± 0.0099,1.03 ± 0.023
MED13 (UniProt Q9UHV7),1.01 ± 0.034,1.03 ± 0.056

Target,NP40-soluble protein abundance (concentration: 0.1mM),NP40-soluble protein abundance (concentration: 0.5mM)
LRWD1 (UniProt Q9UFC0),1.01 ± 0.021,0.991 ± 0.028
THRAP3 (UniProt Q9Y2W1),1.01 ± 0.022,1.08 ± 0.032
UniProt Q9Y394 and related entries,0.96 ± 0.045,0.962 ± 0.031
FKBPL (UniProt Q9UIM3),0.982 ± 0.016,1.01 ± 0.065
APPL1 (UniProt Q9UKG1),1.02 ± 0.028,1.01 ± 0.035
VPS4A (UniProt Q9UN37),1.04 ± 0.071,1.02 ± 0.052
ZC3H4 (UniProt Q9UPT8),0.979 ± 0.035,1.01 ± 0.04
UniProt Q9UNA1 and related entries,0.9857 ± 0.0029,0.9962 ± 0.0088
NRBP1 (UniProt Q9UHY1),1.006 ± 0.0095,1.01 ± 0.011
UniProt Q9UHH9,1.02 ± 0.019,1 ± 0.036
UniProt Q9UI30,0.995 ± 0.054,0.992 ± 0.061
DBR1 (UniProt Q9UK59),0.975 ± 0.027,0.988 ± 0.023
SCML2 (UniProt Q9UQR0),1.02 ± 0.044,1.05 ± 0.07
UniProt Q9UII2,0.992 ± 0.053,1.09 ± 0.12
STX8 (UniProt Q9UNK0),0.995 ± 0.023,0.9659 ± 0.0082
DNAJB11 (UniProt Q9UBS4),1 ± 0.014,0.955 ± 0.027
MRPS28 (UniProt Q9Y2Q9),1.05 ± 0.035,1.04 ± 0.081
MRPL11 (UniProt Q9Y3B7),1.02 ± 0.023,1.02 ± 0.048
UniProt Q9Y237 and related entries,0.979 ± 0.064,1.03 ± 0.14
C19orf53 (UniProt Q9UNZ5),0.9887 ± 0.0088,1.06 ± 0.054
UniProt Q9UN86-2,0.9939 ± 0.0021,1.03 ± 0.036
DPP7 (UniProt Q9UHL4),0.994 ± 0.022,0.99 ± 0.041

# Given with tabs: entries from further up.
Target	NP40-soluble protein abundance (concentration: 0.1mM)	NP40-soluble protein abundance (concentration: 0.5mM)
ADD3 (UniProt Q9UEY8)	1.003 ± 0.0086	0.999 ± 0.017
MRTO4 (UniProt Q9UKD2)	1.04 ± 0.043	1.07 ± 0.01
UniProt Q9UI30	0.995 ± 0.054	0.992 ± 0.061
SCML2 (UniProt Q9UQR0)	1.02 ± 0.044	1.05 ± 0.07

# Further results

Target,NP40-soluble protein abundance (concentration: 0.1mM),NP40-soluble protein abundance (concentration: 0.5mM)
UniProt Q9UMS0 and related entries,1.01 ± 0.022,1.05 ± 0.035
AK3 (UniProt Q9UIJ7),0.95 ± 0.048,0.952 ± 0.074
UniProt Q9Y2X0-2|Q9Y2X0-3|Q9Y2X0,1.006 ± 0.0028,0.937 ± 0.096
YBX2 (UniProt Q9Y2T7),0.996 ± 0.013,1.01 ± 0.051
LSM7 (UniProt Q9UK45),1.02 ± 0.089,1.06 ± 0.14
GGT7 (UniProt Q9UJ14),0.978 ± 0.025,1.01 ± 0.016
INPP5F (UniProt Q9Y2H2),0.993 ± 0.024,0.975 ± 0.013
NOB1 (UniProt Q9ULX3),1.04 ± 0.021,0.992 ± 0.024
PEF1 (UniProt Q9UBV8),0.985 ± 0.029,0.991 ± 0.019
POLK (UniProt Q9UBT6),1 ± 0.0084,0.999 ± 0.03
UniProt Q9UPT9 and related entries,1 ± 0.059,0.968 ± 0.047
UBQLN2 (UniProt Q9UHD9),0.985 ± 0.035,1.05 ± 0.032
UniProt Q9UKX3,0.983 ± 0.068,0.996 ± 0.021
UniProt Q9Y3B2 and related entries,0.946 ± 0.018,1.02 ± 0.031
AMFR (UniProt Q9UKV5),1.01 ± 0.044,0.986 ± 0.039
UniProt Q9UM21,1 ± 0.042,0.974 ± 0.024
PPIL1 (UniProt Q9Y3C6),0.9952 ± 0.005,1.02 ± 0.048
UniProt Q9UKA9 and related entries,1 ± 0.028,1.02 ± 0.02
SERGEF (UniProt Q9UGK8),0.986 ± 0.03,0.983 ± 0.036
UniProt Q9ULT8 and related entries,1.03 ± 0.014,0.972 ± 0.026
AFF4 (UniProt Q9UHB7),1.02 ± 0.021,1.02 ± 0.049
UniProt Q9UHL0 and related entries,1.16 ± 0.015,0.949 ± 0.08

Target,NP40-soluble protein abundance (concentration: 0.1mM),NP40-soluble protein abundance (concentration: 0.5mM)
UniProt Q9UG63 and related entries,1.01 ± 0.031,1 ± 0.047
UniProt Q9ULI0 and related entries,0.9986 ± 0.0096,1.03 ± 0.0027
MRPS23 (UniProt Q9Y3D9),1.03 ± 0.022,1.02 ± 0.027
UniProt Q9UL40 and related entries,1 ± 0.022,1.03 ± 0.0018
UniProt Q9Y2D5 and related entries,0.9978 ± 0.0075,1.07 ± 0.044
UniProt Q9UJY5 and related entries,0.999 ± 0.018,0.998 ± 0.02
AP3M1 (UniProt Q9Y2T2),1.02 ± 0.019,0.988 ± 0.033
NIPSNAP3A (UniProt Q9UFN0),1.02 ± 0.034,1 ± 0.07
WDR3 (UniProt Q9UNX4),1.05 ± 0.04,1.02 ± 0.095
UniProt Q9UBS8 and related entries,0.981 ± 0.018,0.993 ± 0.023
DDX20 (UniProt Q9UHI6),1.01 ± 0.067,1.03 ± 0.079
UniProt Q9ULP9 and related entries,0.984 ± 0.017,1.01 ± 0.031
POFUT2 (UniProt Q9Y2G5),0.9975 ± 0.0049,1 ± 0.014
ZNHIT2 (UniProt Q9UHR6),0.991 ± 0.027,0.9994 ± 0.005
NDUFA12 (UniProt Q9UI09),1 ± 0.04,1.04 ± 0.029
UniProt Q9UKB1 and related entries,0.993 ± 0.026,0.998 ± 0.039
VDAC3 (UniProt Q9Y277),1 ± 0.037,1.02 ± 0.069
UniProt Q9ULX6 and related entries,0.994 ± 0.04,0.971 ± 0.047
RCL1 (UniProt Q9Y2P8),1.04 ± 0.026,0.988 ± 0.11
TUBE1 (UniProt Q9UJT0),0.999 ± 0.026,0.994 ± 0.026
SRRM2 (UniProt Q9UQ35),1.02 ± 0.033,1.04 ± 0.039
UniProt Q9ULJ7 and related entries,0.996 ± 0.075,0.951 ± 0.098

Target,NP40-soluble protein abundance (concentration: 0.1mM),NP40-soluble protein abundance (concentration: 0.5mM)
UniProt Q9Y2V7 and related entries,0.9853 ± 0.0041,0.9969 ± 0.0088
UniProt Q9ULR0 and related entries,0.985 ± 0.013,0.989 ± 0.042
UniProt Q9UK61 and related entries,1.02 ± 0.018,0.998 ± 0.041
AASS (UniProt Q9UDR5),1.02 ± 0.026,0.984 ± 0.037
UniProt Q9UK58 and related entries,0.986 ± 0.052,1.02 ± 0.061
GINS2 (UniProt Q9Y248),0.9988 ± 0.0055,1.02 ± 0.014
KMT2B (UniProt Q9UMN6),1.01 ± 0.014,0.9953 ± 0.0028
POMP (UniProt Q9Y244),1 ± 0.057,1.03 ± 0.038
UniProt Q9UN36 and related entries,0.971 ± 0.038,0.979 ± 0.03
FAF1 (UniProt Q9UNN5),0.994 ± 0.017,0.996 ± 0.036
UniProt Q9UHB4 and related entries,0.984 ± 0.025,0.985 ± 0.022
DUSP12 (UniProt Q9UNI6),1 ± 0.039,1.03 ± 0.067
NOTCH3 (UniProt Q9UM47),1 ± 0.019,0.989 ± 0.035
ENOPH1 (UniProt Q9UHY7),1.02 ± 0.019,1.02 ± 0.032
PA2G4 (UniProt Q9UQ80),0.98 ± 0.032,1.02 ± 0.063
UniProt Q9Y2Y0 and related entries,0.996 ± 0.031,0.988 ± 0.028
GIT1 (UniProt Q9Y2X7),1 ± 0.027,1.02 ± 0.059
UniProt Q9UL54-2,1.02 ± 0.022,1.02 ± 0.042
